Patent publication US20220074941A1, “HSP90 COMBINATION THERAPY” (Sloan-Kettering Institute for Cancer Research, priority 2011, published 2022)
Results are given in words; binding and its absence hold for the method and conditions named. For some assays here: Binding seen in cells or lysates may run through a third protein. Some entries that bind do so weakly or less than the wild type.

Amino acid sequences for entries named in this document (tags omitted). A change or cut given only in a name is not applied to a line headed by its entry. Residues count along the entry.
UniProt P42229: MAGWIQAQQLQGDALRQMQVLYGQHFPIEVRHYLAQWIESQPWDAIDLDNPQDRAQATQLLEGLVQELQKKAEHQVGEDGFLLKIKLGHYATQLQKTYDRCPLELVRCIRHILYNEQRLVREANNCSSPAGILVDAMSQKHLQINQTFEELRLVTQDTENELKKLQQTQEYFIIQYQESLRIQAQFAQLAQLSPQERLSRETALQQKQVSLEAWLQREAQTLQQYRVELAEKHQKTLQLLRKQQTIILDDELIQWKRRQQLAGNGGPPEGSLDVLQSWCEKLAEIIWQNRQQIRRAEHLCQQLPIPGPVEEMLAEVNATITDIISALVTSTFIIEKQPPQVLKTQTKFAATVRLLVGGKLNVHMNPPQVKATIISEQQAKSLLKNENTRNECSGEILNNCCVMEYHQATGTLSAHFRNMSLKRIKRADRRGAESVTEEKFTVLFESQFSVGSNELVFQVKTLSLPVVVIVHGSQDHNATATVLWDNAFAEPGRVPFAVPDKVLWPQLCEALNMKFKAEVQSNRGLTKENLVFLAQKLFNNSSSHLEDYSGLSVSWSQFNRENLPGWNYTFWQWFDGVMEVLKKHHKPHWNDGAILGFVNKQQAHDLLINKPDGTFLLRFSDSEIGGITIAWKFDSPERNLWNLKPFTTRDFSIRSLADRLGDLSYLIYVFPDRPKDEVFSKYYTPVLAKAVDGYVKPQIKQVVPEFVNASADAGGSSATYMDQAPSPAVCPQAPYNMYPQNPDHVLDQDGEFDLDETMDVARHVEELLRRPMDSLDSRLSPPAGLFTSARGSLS
UniProt Q92608: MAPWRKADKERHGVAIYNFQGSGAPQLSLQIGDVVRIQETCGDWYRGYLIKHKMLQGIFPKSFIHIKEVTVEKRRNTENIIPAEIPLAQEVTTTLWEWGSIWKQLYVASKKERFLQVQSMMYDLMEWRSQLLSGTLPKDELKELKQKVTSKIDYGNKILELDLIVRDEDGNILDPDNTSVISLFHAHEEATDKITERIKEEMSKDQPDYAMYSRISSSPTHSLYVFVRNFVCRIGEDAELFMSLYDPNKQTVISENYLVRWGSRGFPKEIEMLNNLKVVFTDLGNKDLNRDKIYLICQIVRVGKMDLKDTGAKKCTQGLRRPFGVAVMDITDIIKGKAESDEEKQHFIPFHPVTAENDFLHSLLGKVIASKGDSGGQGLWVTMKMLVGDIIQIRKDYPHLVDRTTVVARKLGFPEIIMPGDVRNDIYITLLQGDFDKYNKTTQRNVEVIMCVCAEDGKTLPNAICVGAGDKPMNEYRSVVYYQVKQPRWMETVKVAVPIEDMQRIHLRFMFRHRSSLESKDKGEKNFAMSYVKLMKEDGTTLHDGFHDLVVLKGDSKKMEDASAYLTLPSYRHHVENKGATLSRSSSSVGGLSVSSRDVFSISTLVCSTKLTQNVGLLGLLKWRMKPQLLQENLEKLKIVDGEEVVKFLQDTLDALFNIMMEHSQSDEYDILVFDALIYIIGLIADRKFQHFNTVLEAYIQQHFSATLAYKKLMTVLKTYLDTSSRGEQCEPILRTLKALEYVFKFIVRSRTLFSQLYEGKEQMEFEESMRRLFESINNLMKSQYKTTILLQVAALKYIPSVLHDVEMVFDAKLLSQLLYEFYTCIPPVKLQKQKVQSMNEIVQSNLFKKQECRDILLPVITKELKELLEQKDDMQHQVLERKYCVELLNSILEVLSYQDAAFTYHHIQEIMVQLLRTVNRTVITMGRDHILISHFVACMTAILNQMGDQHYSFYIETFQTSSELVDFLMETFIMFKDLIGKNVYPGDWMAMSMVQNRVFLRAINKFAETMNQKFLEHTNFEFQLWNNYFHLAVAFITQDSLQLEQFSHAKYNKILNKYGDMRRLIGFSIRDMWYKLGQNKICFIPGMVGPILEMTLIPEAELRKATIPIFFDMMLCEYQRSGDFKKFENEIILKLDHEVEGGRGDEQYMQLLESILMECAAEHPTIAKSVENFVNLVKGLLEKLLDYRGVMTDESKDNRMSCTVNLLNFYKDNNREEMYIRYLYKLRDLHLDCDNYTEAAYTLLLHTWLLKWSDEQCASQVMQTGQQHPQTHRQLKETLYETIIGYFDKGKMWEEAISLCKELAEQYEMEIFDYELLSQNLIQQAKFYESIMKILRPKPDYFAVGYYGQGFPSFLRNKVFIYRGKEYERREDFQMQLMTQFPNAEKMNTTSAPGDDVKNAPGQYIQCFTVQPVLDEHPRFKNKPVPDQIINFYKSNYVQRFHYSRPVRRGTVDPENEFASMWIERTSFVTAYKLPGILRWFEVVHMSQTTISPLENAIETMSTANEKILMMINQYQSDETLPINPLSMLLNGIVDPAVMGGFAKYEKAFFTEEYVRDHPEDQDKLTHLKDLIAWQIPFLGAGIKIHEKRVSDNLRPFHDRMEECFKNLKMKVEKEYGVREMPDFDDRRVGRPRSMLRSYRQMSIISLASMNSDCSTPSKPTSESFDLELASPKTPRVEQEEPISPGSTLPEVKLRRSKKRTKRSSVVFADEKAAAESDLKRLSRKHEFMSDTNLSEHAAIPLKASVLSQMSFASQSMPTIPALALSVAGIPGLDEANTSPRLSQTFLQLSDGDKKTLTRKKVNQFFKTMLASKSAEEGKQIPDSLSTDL
UniProt Q05397, residues 2-1052: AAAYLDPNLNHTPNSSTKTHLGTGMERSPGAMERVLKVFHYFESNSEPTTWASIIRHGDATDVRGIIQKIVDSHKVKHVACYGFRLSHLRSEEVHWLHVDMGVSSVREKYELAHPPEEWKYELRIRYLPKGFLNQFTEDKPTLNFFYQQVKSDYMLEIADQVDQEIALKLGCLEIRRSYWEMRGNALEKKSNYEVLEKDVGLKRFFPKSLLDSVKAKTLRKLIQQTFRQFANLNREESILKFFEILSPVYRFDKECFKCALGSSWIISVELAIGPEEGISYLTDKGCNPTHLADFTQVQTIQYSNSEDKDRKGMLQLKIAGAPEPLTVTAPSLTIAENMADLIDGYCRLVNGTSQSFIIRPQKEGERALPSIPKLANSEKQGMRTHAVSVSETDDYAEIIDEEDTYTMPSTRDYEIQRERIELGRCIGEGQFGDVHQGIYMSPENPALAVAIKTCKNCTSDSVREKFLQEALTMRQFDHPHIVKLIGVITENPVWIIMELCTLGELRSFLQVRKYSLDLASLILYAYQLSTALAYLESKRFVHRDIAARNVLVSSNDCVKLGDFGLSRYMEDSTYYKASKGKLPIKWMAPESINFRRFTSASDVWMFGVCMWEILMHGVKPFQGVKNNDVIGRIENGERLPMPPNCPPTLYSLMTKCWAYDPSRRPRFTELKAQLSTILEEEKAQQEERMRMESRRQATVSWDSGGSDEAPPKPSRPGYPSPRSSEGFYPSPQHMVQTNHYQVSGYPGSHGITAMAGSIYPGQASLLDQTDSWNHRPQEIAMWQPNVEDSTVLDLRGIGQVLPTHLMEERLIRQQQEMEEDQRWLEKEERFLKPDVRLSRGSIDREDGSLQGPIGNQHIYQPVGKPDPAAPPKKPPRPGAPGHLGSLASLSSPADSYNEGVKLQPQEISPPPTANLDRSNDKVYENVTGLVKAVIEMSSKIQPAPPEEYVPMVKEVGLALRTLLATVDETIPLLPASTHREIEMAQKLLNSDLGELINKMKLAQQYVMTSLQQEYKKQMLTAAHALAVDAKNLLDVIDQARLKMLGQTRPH
UniProt P11274: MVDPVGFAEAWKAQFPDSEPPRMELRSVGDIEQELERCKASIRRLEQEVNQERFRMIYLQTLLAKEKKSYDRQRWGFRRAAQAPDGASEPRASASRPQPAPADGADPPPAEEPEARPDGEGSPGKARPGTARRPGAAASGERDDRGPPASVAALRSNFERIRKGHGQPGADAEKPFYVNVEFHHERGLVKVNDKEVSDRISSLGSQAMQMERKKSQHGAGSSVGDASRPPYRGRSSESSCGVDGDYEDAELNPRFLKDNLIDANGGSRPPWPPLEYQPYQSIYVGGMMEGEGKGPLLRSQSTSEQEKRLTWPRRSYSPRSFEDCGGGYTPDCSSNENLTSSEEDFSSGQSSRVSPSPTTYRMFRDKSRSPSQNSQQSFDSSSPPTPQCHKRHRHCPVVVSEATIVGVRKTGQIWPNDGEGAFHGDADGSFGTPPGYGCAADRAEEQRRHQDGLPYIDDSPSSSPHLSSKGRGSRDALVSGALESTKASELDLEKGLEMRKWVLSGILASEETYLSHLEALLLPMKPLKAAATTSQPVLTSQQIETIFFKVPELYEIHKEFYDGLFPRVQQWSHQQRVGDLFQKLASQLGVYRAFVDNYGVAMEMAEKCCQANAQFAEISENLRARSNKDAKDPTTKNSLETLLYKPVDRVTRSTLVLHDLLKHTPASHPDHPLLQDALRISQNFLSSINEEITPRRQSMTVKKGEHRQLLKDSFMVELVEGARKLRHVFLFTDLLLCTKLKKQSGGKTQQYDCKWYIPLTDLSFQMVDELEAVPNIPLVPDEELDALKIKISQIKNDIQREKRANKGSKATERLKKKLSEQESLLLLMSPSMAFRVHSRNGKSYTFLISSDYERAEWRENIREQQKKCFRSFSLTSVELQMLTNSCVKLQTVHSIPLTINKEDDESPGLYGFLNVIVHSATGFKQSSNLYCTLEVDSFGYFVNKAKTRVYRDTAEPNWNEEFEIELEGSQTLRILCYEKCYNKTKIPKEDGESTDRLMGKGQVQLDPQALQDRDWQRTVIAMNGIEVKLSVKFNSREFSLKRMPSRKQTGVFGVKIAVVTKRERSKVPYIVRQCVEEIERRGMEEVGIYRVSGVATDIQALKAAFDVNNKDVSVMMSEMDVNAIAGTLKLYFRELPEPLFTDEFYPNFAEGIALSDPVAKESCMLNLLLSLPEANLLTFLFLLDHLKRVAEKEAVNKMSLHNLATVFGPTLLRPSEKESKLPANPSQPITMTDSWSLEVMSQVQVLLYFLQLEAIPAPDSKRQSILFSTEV
UniProt P46109: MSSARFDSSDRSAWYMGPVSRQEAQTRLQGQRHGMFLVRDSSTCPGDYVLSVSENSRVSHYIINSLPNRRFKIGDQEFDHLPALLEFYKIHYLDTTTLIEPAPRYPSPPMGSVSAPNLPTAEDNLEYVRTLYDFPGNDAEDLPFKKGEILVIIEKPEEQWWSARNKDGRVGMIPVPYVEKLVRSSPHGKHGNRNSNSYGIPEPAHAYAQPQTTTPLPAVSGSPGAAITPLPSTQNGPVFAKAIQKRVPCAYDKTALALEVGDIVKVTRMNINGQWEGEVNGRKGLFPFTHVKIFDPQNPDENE
UniProt Q06187, residues 2-659: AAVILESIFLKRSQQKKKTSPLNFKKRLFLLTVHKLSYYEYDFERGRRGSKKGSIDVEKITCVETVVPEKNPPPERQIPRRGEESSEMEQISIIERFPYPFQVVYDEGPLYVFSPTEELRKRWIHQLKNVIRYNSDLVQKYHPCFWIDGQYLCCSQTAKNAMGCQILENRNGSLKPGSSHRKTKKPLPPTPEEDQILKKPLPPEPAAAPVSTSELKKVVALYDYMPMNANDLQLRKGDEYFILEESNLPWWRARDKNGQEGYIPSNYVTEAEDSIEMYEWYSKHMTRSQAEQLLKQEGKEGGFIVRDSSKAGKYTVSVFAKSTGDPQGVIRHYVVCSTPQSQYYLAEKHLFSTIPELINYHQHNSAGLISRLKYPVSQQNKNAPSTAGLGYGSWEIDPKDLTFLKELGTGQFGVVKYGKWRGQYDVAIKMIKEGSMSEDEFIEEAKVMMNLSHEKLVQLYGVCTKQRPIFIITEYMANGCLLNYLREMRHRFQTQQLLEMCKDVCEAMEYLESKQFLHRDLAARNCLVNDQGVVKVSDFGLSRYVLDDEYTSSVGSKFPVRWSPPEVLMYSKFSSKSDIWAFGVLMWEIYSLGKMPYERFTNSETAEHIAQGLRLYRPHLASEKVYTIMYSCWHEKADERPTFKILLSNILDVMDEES

Key:
[1] = molecular target: mutant B-Raf expressed in SKMel28 melanoma cells (UniProt P15056); experiment: PU-H71- and GM-bead chemical precipitation from SKMel28 extract, Western blot
p-STAT5 (human) = p-STAT5 (human) (UniProt P42229); experiment: sequential PU-H71-bead chemical precipitation from K562 cells, pull-downs and remaining supernatant by Western blot
c-Kit [2] = molecular target: c-Kit (UniProt P10721); experiment: PU-H71-bead chemical precipitation from MDA-MB-468 extract, Western blot
IGF-IR [3] = molecular target: IGF-IR (UniProt P08069); experiment: as above
STAT5 (human) [4] = molecular target: STAT5 (human) (UniProt P42229); experiment: PU-H71-bead chemical precipitation from K562 versus Mia-PaCa-2 extracts; nano LC-MS/MS
vav (human) [5] = molecular target: T1, vav (human) (UniProt P15498); experiment: PU-H71-bead chemical precipitation from K562 extract; MS, Western blot
T1 sequence (looked up): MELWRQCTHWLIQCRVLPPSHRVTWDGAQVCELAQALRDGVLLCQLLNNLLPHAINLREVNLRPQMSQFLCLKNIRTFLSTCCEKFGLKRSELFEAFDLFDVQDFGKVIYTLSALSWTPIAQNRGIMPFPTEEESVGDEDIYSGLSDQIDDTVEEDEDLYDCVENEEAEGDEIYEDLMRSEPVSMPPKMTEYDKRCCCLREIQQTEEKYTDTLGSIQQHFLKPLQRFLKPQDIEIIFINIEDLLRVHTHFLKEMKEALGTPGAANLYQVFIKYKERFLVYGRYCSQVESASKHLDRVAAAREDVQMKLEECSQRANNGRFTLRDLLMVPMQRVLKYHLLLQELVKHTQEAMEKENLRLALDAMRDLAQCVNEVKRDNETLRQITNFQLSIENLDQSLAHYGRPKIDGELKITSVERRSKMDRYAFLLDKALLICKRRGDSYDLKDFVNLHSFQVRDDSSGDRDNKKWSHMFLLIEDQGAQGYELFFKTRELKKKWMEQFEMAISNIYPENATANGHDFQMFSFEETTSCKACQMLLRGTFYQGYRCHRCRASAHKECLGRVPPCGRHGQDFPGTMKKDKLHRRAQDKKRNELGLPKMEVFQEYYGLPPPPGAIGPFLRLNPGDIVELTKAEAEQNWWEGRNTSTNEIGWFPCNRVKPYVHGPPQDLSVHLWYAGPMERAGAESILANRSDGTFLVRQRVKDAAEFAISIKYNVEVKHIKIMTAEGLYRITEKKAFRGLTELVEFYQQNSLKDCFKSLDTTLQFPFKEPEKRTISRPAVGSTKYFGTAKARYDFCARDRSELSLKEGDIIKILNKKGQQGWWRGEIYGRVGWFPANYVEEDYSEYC

PKD2 (or PRKD2) (human) [6] = molecular target: T2, PKD2 (or PRKD2) (human) (UniProt Q9BZL6); experiment: as above
T2 sequence (looked up): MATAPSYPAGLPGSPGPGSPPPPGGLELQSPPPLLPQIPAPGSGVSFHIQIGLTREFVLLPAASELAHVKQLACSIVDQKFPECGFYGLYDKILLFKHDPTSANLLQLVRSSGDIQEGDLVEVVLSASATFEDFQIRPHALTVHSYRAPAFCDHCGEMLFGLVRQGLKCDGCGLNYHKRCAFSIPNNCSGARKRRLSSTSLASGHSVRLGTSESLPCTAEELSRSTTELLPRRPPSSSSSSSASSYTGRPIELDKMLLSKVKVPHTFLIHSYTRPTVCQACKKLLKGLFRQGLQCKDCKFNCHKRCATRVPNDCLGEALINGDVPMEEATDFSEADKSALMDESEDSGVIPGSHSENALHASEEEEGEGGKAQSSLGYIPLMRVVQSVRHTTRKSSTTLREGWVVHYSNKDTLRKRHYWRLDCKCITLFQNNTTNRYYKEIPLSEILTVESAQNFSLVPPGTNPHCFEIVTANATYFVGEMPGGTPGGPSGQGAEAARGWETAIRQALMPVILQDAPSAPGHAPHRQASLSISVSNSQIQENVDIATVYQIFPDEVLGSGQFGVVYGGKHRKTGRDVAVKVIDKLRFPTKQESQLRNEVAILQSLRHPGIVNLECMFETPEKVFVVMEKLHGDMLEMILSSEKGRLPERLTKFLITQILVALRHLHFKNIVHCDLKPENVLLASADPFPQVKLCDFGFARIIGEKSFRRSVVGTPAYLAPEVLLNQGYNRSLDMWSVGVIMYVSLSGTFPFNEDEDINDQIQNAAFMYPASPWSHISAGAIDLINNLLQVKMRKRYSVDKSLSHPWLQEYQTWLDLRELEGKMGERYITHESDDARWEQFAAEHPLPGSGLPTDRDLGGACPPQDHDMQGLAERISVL

DOCK (human) = DOCK (human) (UniProt Q92608); experiment: as above
FAK (human) [7] = molecular target: FAK (human) (UniProt Q05397); experiment: as above
Bcr-Abl (human) [8] = molecular target: T3, Bcr-Abl (human) (UniProt P11274+P00519); experiment: as above
GRB2 (human) = GRB2 (human) (UniProt P62993); experiment: as above
EPS15 (human) = molecular target: T4, EPS15 (human) (UniProt P42566); experiment: as above
T4 sequence (looked up): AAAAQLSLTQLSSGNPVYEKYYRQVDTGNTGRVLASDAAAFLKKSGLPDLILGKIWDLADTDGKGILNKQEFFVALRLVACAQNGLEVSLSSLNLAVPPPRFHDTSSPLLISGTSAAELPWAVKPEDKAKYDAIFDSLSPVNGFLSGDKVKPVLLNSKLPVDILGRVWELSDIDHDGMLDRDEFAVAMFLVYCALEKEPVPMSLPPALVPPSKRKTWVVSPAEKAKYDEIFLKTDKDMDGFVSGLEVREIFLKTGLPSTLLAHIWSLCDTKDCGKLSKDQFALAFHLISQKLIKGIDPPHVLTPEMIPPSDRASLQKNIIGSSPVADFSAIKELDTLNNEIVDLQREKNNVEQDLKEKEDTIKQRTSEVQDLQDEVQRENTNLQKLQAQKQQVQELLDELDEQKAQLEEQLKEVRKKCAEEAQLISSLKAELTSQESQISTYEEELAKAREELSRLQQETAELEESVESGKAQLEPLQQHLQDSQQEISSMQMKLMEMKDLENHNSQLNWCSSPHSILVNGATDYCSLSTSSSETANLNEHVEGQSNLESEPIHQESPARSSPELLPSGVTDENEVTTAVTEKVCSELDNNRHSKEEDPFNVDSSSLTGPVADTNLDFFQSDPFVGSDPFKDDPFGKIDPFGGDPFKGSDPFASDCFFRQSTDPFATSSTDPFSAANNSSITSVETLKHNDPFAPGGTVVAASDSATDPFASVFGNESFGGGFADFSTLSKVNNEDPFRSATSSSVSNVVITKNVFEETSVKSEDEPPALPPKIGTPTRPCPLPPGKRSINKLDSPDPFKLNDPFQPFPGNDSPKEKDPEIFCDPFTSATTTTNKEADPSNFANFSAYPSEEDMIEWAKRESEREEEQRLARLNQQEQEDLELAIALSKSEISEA

CRKL (human) = CRKL (human) (UniProt P46109); experiment: as above
[9] = molecular target: WT B-Raf expressed in CCD18Co normal colon fibroblasts (UniProt P15056); experiment: co-immunoprecipitation with H9010 from CCD18Co extract, Western blot
STAT5 (human) [10] = molecular target: STAT5 (human) (UniProt P42229); experiment: summary legend (FIG. 8h) of the K562 STAT5 experiments
FAK (human) [11] = molecular target: FAK (human) (UniProt Q05397); experiment: PU-H71-bead chemical precipitation from K562 extract; nano LC-MS/MS, Western blot
c-Abl (human) [12] = molecular target: c-Abl (human) (UniProt P00519); experiment: immuno- and chemical precipitation from K562 extract, Western blot
Bcr-Abl (human) [13] = molecular target: T3, Bcr-Abl (human); experiment: as above
[14] = molecular target: Bruton agammaglobulinemia tyrosine kinase (BTK) (human) (UniProt Q06187); experiment: PU-H71-bead chemical precipitation from OCI-Ly1 and OCI-Ly7 extracts, Western blot
Bcr-Abl (human) [15] = molecular target: T3, Bcr-Abl (human); experiment: PU-H71-bead chemical precipitation from K562 extract, nano LC-MS/MS
c-Abl (human) [16] = molecular target: c-Abl (human) (UniProt P00519); experiment: sequential chemical and immuno-precipitation from K562 extract, Western blot
Bcr-Abl (human) [17] = molecular target: T3, Bcr-Abl (human); experiment: as above
c-Abl (human) [18] = molecular target: c-Abl (human) (UniProt P00519); experiment: co-immunoprecipitation with H9010 from PU-bead-depleted K562 extract, Western blot
vav (human) [19] = molecular target: T1, vav (human); experiment: PU-H71-bead chemical precipitation from K562 and primary CML extracts; nano LC-MS/MS, Western blot
PKD2 (or PRKD2) (human) [20] = molecular target: T2, PKD2 (or PRKD2) (human); experiment: as above
[21] = molecular target: Bruton agammaglobulinemia tyrosine kinase (BTK) (human) (UniProt Q06187); experiment: as above
STAT5 (human) [22] = molecular target: STAT5 (human) (UniProt P42229); experiment: as above
[23] = molecular target: Bruton agammaglobulinemia tyrosine kinase (BTK) (human) (UniProt Q06187); experiment: PU-H71-bead chemical precipitation from DLBCL cell lysates, Western blot
HER3 = HER3 (UniProt P21860); experiment: PU-H71- and GM-bead precipitation of Hsp90 complexes from MDA-MB-468 extract, Western blot
[24] = molecular target: mutant B-Raf expressed in SKMel28 melanoma cells (UniProt P15056); experiment: co-immunoprecipitation with H9010 and PU-/GM-bead precipitation from SKMel28 extract, Western blot
Bcr-Abl (human) [25] = molecular target: T3, Bcr-Abl (human); experiment: PU-H71-bead chemical precipitation from K562 extract, Western blot
[26] = molecular target: T5, HIP (Hsc70-interacting protein) (human) (UniProt P50502); experiment: as above
T5 sequence (looked up): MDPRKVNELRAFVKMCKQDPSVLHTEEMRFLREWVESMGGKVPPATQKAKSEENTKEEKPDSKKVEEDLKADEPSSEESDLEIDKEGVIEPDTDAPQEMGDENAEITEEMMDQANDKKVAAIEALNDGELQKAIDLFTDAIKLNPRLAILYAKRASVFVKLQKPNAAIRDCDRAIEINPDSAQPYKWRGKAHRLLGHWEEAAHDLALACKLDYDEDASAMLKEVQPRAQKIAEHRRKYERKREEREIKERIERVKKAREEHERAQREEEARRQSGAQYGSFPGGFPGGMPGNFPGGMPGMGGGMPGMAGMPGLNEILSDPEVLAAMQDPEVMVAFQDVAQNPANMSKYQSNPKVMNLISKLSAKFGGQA

Bcr-Abl (human) [27] = molecular target: T3, Bcr-Abl (human); experiment: SNX-, NVP- and GM-bead chemical precipitation from K562 extract, Western blot
c-Abl (human) [28] = molecular target: c-Abl (human) (UniProt P00519); experiment: NVP-bead chemical precipitation from K562 extract, Western blot
c-Kit [29] = molecular target: c-Kit (UniProt P10721); experiment: PU-H71-bead chemical precipitation from MDA-MB-468 extract (300 µg), Western blot
IGF-IR [30] = molecular target: IGF-IR (UniProt P08069); experiment: as above
c-Abl (human) [31] = molecular target: c-Abl (human) (UniProt P00519); experiment: co-immunoprecipitation with H9010 from K562 extract, Western blot
Bcr-Abl (human) [32] = molecular target: T3, Bcr-Abl (human); experiment: as above

Measured: binding

heat shock protein 90 (Hsp90), endogenous, in human cancer and normal cell extracts (from UniProt P07900 2-732)
binds: all assays above
